# Earlier results, collected in patent publication US20120238566A1, “USE OF CELL AUTOPHAGY (TYPE II CELL APOPTOSIS) INHIBITORS” (priority 2009, published 2012).
# Key:
# JNK/SAPK = settings: no prominent inhibitory effect; cited from earlier work
# [1] = system: p44/42 MAPK (i.e. Erk1/2); settings: no prominent inhibitory effect; cited from earlier work
smiles,measurement,setting,value
C[S+]([O-])c1ccc(-c2nc(-c3ccncc3)c(-c3ccc(F)cc3)[nH]2)cc1 (centres unmarked) [SB203580],IC50,JNK/SAPK,100 µM
same,IC50,[1],100 µM
